Data as given in patent publication US20220308056A1.
No constants are given. Whether binding was seen depends on the method and setting. Some binding calls cover weakened binding; strength is not graded here.

Sequences of proteins named here, by UniProt entry; tags and fusion partners are left off. A change or cut given only in a name is not applied to a line headed by its entry.
UniProt O00187: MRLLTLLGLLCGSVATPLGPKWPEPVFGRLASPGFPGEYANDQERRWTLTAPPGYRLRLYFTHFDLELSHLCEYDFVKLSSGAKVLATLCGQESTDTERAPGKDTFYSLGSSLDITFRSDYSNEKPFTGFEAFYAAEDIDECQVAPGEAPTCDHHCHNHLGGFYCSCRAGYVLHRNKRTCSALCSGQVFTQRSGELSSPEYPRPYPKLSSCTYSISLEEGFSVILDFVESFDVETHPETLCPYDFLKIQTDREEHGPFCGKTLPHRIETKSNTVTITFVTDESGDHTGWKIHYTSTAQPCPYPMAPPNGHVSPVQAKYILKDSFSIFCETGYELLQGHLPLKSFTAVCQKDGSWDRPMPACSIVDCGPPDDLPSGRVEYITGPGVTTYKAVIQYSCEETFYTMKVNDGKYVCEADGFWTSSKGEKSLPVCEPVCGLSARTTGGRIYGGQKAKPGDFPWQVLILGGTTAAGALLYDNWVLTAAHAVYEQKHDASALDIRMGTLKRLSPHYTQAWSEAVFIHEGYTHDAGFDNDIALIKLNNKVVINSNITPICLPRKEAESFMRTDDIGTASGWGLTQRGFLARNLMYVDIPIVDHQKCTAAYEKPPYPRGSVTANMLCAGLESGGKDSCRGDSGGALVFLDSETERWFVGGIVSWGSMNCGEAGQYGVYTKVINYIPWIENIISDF

Target: T1, C1 esterase inhibitor (Sigma E0518, from human plasma), MW 105,000 (human) (UniProt P05155)
T1 sequence: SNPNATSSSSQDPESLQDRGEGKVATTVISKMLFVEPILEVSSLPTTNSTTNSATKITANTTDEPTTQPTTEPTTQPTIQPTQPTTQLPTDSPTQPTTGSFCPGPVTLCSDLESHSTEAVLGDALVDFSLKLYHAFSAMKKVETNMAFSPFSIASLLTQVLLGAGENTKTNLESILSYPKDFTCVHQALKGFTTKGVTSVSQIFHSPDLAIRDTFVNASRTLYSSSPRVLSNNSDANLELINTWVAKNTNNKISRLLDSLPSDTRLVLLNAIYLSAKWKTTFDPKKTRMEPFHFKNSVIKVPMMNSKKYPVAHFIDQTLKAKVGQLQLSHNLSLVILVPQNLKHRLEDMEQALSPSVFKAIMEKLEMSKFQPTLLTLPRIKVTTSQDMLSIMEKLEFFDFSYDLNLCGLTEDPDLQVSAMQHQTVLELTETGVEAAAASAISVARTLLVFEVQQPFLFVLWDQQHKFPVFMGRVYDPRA
Test: mixing at molar ratio 1:1.5, 60 min 37° C, size exclusion chromatography and non-reducing gel

Substance: human MASP-2 CCP1/CCP2/SP6His (MW 43,740) (from UniProt O00187 298-686) (enzyme)
- binding: binds
